The results in this text go back to article PMC7312248.

The target in test [1] is T1, AtHB12 (Arabidopsis thaliana) (UniProt Q9M276).
T1 sequence: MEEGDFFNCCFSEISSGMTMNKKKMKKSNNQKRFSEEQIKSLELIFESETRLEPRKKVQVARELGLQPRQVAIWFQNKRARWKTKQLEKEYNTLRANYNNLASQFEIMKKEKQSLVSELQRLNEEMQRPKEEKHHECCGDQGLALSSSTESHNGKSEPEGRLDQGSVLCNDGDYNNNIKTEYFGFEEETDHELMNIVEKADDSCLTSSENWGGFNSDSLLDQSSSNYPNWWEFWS
The test is described as follows: two-hybrid; Matchmaker Gold Yeast Two-Hybrid System (TAKARA); pGBKT7 (BD) and pGADT7 (AD) fusions co-transformed into yeast; growth on medium lacking Leu, Trp, His or lacking Leu, Trp, His, Ade with 3-AT, 30 °C, 3 days.

Test [2] concerns the target AtHB7 (Arabidopsis thaliana) (UniProt P46897). The test is described as above.

These are yes or no findings as the source states them, for the method shown. Some entries that bind do so weakly or less than the wild type.

B1: AtHB12 (protein, UniProt Q9M276 1-235)
chain: T1 sequence
With B1, in test [1], the binding entry is given as “binds”.

B2: AtHB7 (protein, UniProt P46897 1-258)
chain: MTEGGEYSPAMMSAEPFLTMKKMKKSNHNKNNQRRFSDEQIKSLEMMFESETRLEPRKKVQLARELGLQPRQVAIWFQNKRARWKSKQLETEYNILRQNYDNLASQFESLKKEKQALVSELQRLKEATQKKTQEEERQCSGDQAVVALSSTHHESENEENRRRKPEEVRPEMEMKDDKGHHGVMCDHHDYEDDDNGYSNNIKREYFGGFEEEPDHLMNIVEPADSCLTSSDDWRGFKSDTTTLLDQSSNNYPWRDFWS
As for B2, the binding entry in test [2] and in test [1] was “binds” each time.
